# Experimental data published in PubChem BioAssay AID624297 (National Center for Advancing Translational Sciences (NCATS), 2012).
# Where “and” joins values, the source holds several entries; their conditions need not be identical. Identical values can stand only once. Out of some 340,000 compounds screened, about 6,200 (1.8%) were called active. The shares of active, inactive and inconclusive entries below differ from those in the screen. The call rests on the fitted dose curve; in most records, active means well fitted activation curve with a large enough effect; inconclusive means small, poorly fitted or top-dose-only effect; inactive means no such curve, though single readings can be large or run the other way. Potencies beside an inconclusive call are fits to weak or partial responses and may not hold up.
# Assay: A quantitative high throughput screen for small molecules that induce DNA re-replication in SW480 colon adenocarcinoma cells. Further: nearly all actives have a fitted effect of over 55% in size. On re-replication activation: % of control where 0% means no effect.
# Settings: Hoechst DNA content imaging, 48 h; re-replication activation: at 46.1 µM (top of the series) unless noted
# Excerpt: H Molecular Libraries Probe Production Network [MLPCN] NIH Chemical Genomics Center [NCGC] MLPCN Grant: Fast Track K99 CA136555 Assay Provider: Melvin DePamphilis, NICHD, NIH Assay Overview Eukaryotic cells normally restrict genome duplication to once per cell division. When this process is aberrant, DNA re-replication occurs when cells reinitiate DNA replication before the first round of replication is complete. DNA re-replication induces the DNA damage response, arrests cell proliferation, and triggers apoptosis. The cell cycle components cyclin A, Cdt-1, Cdc6 and geminin are critical regulators of this process and their misregulation results in DNA re-replication in normal and cancer cells. To identify compounds that induce re-replication in normal cells, an image-based assay was used to measure DNA content of nuclei, as detected by the fluorescent DNA binding dye, Hoechst. Cell nuclei were imaged by a fluorescence scanning plate imager and compounds that induce DNA re-replication were identified by the increase of nuclei with elevated fluorescence intensity
# For screening, 250 cells in 5 uL/well were dispensed into black clear 1536-well plates (Aurora) using a solenoid-based dispenser. Following transfer of 23 nL compound or DMSO vehicle by a pin tool, the plates were incubated 48 hr at 37 C and 5% CO2. After addition of 1 uL/well Hoescht stain, the plates were incubated 40 min at 37 C, 5% CO2 and total intensity of fluorescent objects (nuclei) were enumerated by an Acumen Explorer Ex3 (TTP LabTech) fluorescence scanning plate imager (405 nm excitation, 500-530 nm emission). Keywords: NIH Roadmap, MLPCN, MLI, MLSMR, qHTS, NCGC, DNA replication, cancer
# Potency means the concentration at half of the fitted maximal effect.
SMILES,Potency,re-replication activation
Cc1c(Cc2ccccc2)c(=O)oc2c(O)c(O)ccc12,"inconclusive: 13 µM [activator, partial curve, poor fit]",–
CN1C(=O)C(C)(C)c2cc(S(=O)(=O)N3CCN(c4ccc(F)cc4)CC3)ccc21,"inconclusive: 2.91 µM [activator, full curve, poor fit]",–
CCOc1ccc(N(CC(=O)N/N=C/c2ccccn2)S(=O)(=O)c2ccc(Cl)cc2)cc1,"inconclusive: 16.4 µM [activator, single point]",–
CCOC(=O)C1CCN(CC(=O)c2c(C)n(C)c3ccc(OC)cc23)CC1,–,inactive: -8.03%
CCOCc1nnc(NC(=O)CCS(=O)(=O)Cc2ccccc2)s1,"inconclusive: 18.4 µM [activator, partial curve, poor fit]",–
COc1cc2ccccc2cc1C(=O)Nc1ccc(C)cc1,"inconclusive: 18.4 µM [activator, single point]",–
Cc1ccc2[nH]c3c(c2c1)CN(C(=O)CN1c2ccc(F)cc2CCC1C)CC3 (stereo not drawn),"inconclusive: 29.1 µM [activator, single point]",–
CN(C)CCC=C1c2ccccc2C(C)(C)c2ccccc21,"inconclusive: 33.5 µM [activator, single point]",–
O=C1C(Nc2cccc(O)c2)=C(N2CCCCC2)C(=O)c2ccccc21,–,inactive: 1.23%
Cn1cc(C=C2C(=O)OC3(CCCCC3)OC2=O)c2ccccc21,"inconclusive: 0.82 µM [activator, full curve, poor fit]",–
CCS(=O)(=O)c1nc(S(=O)(=O)c2ccc(C)cc2)c(N2CC(C)CC(C)C2)s1 (stereo not drawn),–,inactive: -34.3%
COc1ccccc1N1CCN(C2CC(=O)N(c3cccc(Cl)c3)C2=O)CC1 (stereo not drawn),–,inactive: -37.5%
Cc1cc(C(=O)Nc2cccc(C(=O)O)c2)oc1C,–,inactive: -9.31%
COC(=O)c1cnc(NNS(=O)(=O)c2ccc(C(F)(F)F)cc2)nc1C(F)(F)F,"inconclusive: 6.51 µM [activator, single point]",–
O=C(NCc1ccccc1Cl)C1CCCN1S(=O)(=O)c1ccccc1F (stereo not drawn),–,inactive: 17.4%
Cc1cc(NC(=O)c2c(F)cccc2Cl)no1,"inconclusive: 29.1 µM [activator, single point]",–
O=C(c1cc(-c2ccccc2Cl)nc2ccccc12)N1CCOCC1,–,inactive: -1.56%
CC(C)(C)c1ccc(NC(=O)N2CCCN(c3c(Cl)cncc3Cl)CC2)cc1,"inconclusive: 18.4 µM [activator, single point]",–
COc1ccc(N(CC(=O)Nc2cc(Cl)ccc2OC)S(=O)(=O)c2c(C)noc2C)cc1,"inconclusive: 25.9 µM [activator, single point]",–
C=CCNC(=S)N/N=C/c1ccc(C)c([N+](=O)[O-])c1,–,inactive: -697%
O=C(NCc1ccccc1)C1=C[C@@H](C2CCCCC2)C[C@@H](OCc2ccc(CO)cc2)O1,"inconclusive: 0.231 µM [activator, full curve, poor fit]",–
Cc1cc2c(=Cc3ccc(N(C)C)cc3)c3ccccc3n2[n+]1C,"inconclusive: 6.51 µM [activator, full curve, poor fit]",–
COc1cc(CCNC(=O)c2ccccc2NC(=O)C2=C(C)OCCS2)cc(OC)c1OC,"inconclusive: 29.1 µM [activator, single point]",–

SMILES,Potency,re-replication activation
CC(C(=O)NC1CCCCC1)N1CCN(C)CC1 (stereo not drawn),"inconclusive: 29.1 µM [activator, single point]",–
CN(C)CCCNc1c2ccccc2nc2ccccc12,"inconclusive: 1.46 µM [activator, partial curve, poor fit]",–
CCOc1ncccc1C(=O)NCCN1C(=O)S/C(=C/c2cccs2)C1=O,"inconclusive: 20.6 µM [activator, single point]",–
COc1cc(NC(=S)N2CCc3ccccc3C2)cc(OC)c1,–,inactive: 1.78%
CC(C)(C)Oc1ncc(Br)c(OC(C)(C)C)n1,"inconclusive: 29.1 µM [activator, single point]",–
O=C(COc1ccc(Br)cc1)NCCNC(=O)c1cccnc1,"inconclusive: 1.84 µM [activator, full curve, poor fit]",–
O=C(CN(C(=O)c1csnn1)c1ccc(F)c(Cl)c1)NC1CCCC1,–,inactive: 20.6%
CSc1nsc(SCC(=O)N2CCCc3ccccc32)n1,–,inactive: 2.94%
Cc1ccc(Nc2cc(C)c3ccc(O)cc3n2)cc1C,"inconclusive: 29.1 µM [activator, single point]",–
Cn1c(C(=O)OC(C(=O)NC2CCCC2)c2cccnc2)cc2sccc21 (stereo not drawn),"inconclusive: 29.1 µM [activator, single point]",–
Cc1ccc(NC(=O)Cn2c(-c3ccc(F)cc3)cnc2SCC(=O)Nc2c(C)cccc2C)cc1,"inconclusive: 13 µM [activator, partial curve, poor fit]",–
O=C(NNc1ccccc1)C(=O)NNc1ccccc1,"inconclusive: 0.0041 µM [activator, full curve, poor fit]",–
Cc1ccc(NC(=O)NCCCCc2ccccc2)cc1,–,inactive: 6.82%
COc1ccc(CCNc2ncnc3c2c(C)c(C)n3CCO)cc1OC,"inconclusive: 20.6 µM [activator, partial curve, poor fit]",–
Cn1c(C(=O)NCCCN2CCCCCC2)cc2c(=O)n(C)c3ccccc3c21,–,inactive: -3.27%
O=C(Nc1cccc(NC(=O)c2ccccc2Cl)c1)c1ccco1,"inconclusive: 23.1 µM [activator, partial curve, poor fit]",–
CC(C)c1nc2c(c(=O)c3ccccc3n2C)c(=O)n1CCc1ccccc1,"inconclusive: 2.91 µM [activator, single point]",–
COc1cccc(N2CCN(c3nc(-c4ccccc4C)cc(=O)[nH]3)CC2)c1,"inconclusive: 5.17 µM [activator, full curve, poor fit]",–
NC(=O)c1ncn([C@@H]2O[C@H](CNCc3cccc(OC4CCCC4)c3)[C@@H](O)[C@H]2O)n1,"inconclusive: 29.1 µM [activator, single point]",–
CCOCCCNC(=O)C(c1ccc(C)cc1)N(Cc1cccs1)C(=O)c1ccccc1O (stereo not drawn),–,inactive: -3.22%
CC(=O)N1N=C(c2ccc(Cl)cc2)CC1c1ccc([N+](=O)[O-])cc1 (stereo not drawn),"inconclusive: 29.1 µM [activator, single point]",–
COc1cccc(NC(=O)N2CCN(c3nc(-c4cccc(OC)c4)cs3)CC2)c1,"inconclusive: 29.1 µM [activator, single point]",–
COc1ccccc1CNCc1ccc(C)cc1,–,inconclusive: 22.5% [activator]

SMILES,Potency,re-replication activation
Cc1ccc(C)c(CN2C(=O)c3ccccc3S(=O)c3ccc(C(=O)N4CCN(c5ccccn5)CC4)cc32)c1 (stereo not drawn),–,inactive: 20.4%
O=C(N/N=C/c1ccc([N+](=O)[O-])o1)c1cc(-c2ccc(-c3ccccc3)cc2)nc2ccccc12,active: 1.3 µM,–
O=C(CN1C(=O)C(=O)N(C2CCCC2)C1=O)Nc1ccc(Cl)cc1C(F)(F)F,–,inactive: -3.91%
Cc1nc2ccc(F)cc2cc1C(=O)NCC1CCCO1 (stereo not drawn),"inconclusive: 29.1 µM [activator, single point]",–
O=C(NC(=S)N1CCN(c2ccccc2)CC1)c1ccc(S(=O)(=O)N2CCOCC2)cc1,"inconclusive: 3.26 µM [activator, partial curve, poor fit]",–
Cc1ccccc1C1C(=O)c2ccccc2C1=O,"inconclusive: 29.1 µM [activator, partial curve, poor fit]",–
O=C(NCCSc1ncc(-c2ccccc2)[nH]1)c1ccco1,"inconclusive: 23.1 µM [activator, single point]",–
CCCCCCCCNC(C)C(O)c1ccc(SC(C)C)cc1 (stereo not drawn),"inconclusive: 10.6 µM [activator, partial curve] and inconclusive: 11.6 µM [activator, single point] and inconclusive: 29.1 µM [activator, single point]",–
COCCn1c(=O)sc2ccccc2c1=O,–,inactive: -68.8%
Cc1ccccc1Nc1c(-c2cccnc2)nc2ccccn12,"inconclusive: 2.31 µM [activator, full curve, poor fit]",–
Cc1ccc(NC(=O)COc2ccccc2C(=O)NCCc2ccccc2)cc1,"inconclusive: 16.4 µM [activator, partial curve, poor fit]",–
CC(NC(=O)c1ccccc1NC(=O)c1ccco1)c1ccccc1 (stereo not drawn),"inconclusive: 2.91 µM [activator, partial curve, poor fit]",–
Cc1ccc(S(=O)(=O)NC(=NCC(=O)O)c2ccccc2)cc1,–,inactive: -3.79%
CN(c1cccc(Cl)c1)S(=O)(=O)c1cccc(C(=O)NCc2ccncc2)c1,–,inactive: -3.64%
Cc1cccc(C(=O)N(Cc2nc3ccccc3c(=O)[nH]2)C2CCCCC2)c1,–,inactive: -2.56%
COc1ccc(-c2cc(=O)oc3cc(OC(=O)C4CCCCC4)c(Cl)cc23)cc1,active: 11.6 µM,–
CC(C)(C)c1ccc(-c2csc(NNC3=NCCCCC3)n2)cc1,"inconclusive: 25.9 µM [activator, single point]",–
O=C(c1cc(Cl)nc2ccccc12)N1CCN(S(=O)(=O)c2ccccc2[N+](=O)[O-])CC1,–,inactive: -5.24%
OC(C1=CC(=Cc2ccncc2)c2ccccc21)c1ccncc1 (stereo not drawn),–,inactive: -6.54%
CCCCN(C(=O)c1ccc(-c2ccc(Cl)cc2)o1)c1c(N)n(CCC)c(=O)[nH]c1=O,"inconclusive: 29.1 µM [activator, single point]",–
COc1ccccc1N1CCN(C(=S)Nc2ccc(S(=O)(=O)N3CCOCC3)cc2)CC1,–,inactive: 2.52%
COc1ccc(C)cc1S(=O)(=O)N(C)CC(=O)NC1CCCC1,"inconclusive: 0.411 µM [activator, partial curve, poor fit]",–
